The target in assay [1] is T1, Developmental Pluripotency Associated 2 (DPPA2), endogenous (human (endogenous in NCI-H661)) (UniProt Q7Z7J5).
T1 sequence: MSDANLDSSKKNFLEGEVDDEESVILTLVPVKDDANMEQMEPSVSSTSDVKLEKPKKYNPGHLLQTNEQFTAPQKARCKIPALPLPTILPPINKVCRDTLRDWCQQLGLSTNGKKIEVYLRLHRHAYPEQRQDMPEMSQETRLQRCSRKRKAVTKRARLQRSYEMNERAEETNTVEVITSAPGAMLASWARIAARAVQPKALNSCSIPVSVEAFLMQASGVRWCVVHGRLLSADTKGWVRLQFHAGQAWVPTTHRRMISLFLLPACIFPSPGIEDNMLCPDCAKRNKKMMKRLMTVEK
Description: affinity purification with mass spectrometry.

In assay [2] the target is T2, Developmental Pluripotency Associated 4 (DPPA4), endogenous (human (endogenous in NCI-H661)) (UniProt Q7L190).
T2 sequence: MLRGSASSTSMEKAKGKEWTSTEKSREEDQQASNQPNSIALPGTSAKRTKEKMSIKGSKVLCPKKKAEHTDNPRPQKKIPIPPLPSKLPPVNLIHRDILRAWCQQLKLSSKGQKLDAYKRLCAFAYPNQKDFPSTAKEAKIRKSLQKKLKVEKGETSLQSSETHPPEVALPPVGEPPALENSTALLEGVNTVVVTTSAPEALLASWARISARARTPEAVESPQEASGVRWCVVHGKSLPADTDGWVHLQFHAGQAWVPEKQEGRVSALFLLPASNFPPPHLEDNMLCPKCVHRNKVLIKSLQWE
Put plainly: affinity purification with mass spectrometry.

Results are given in words; binding and its absence hold for the method and conditions named. In cells and extracts the contact can be indirect. These calls come from enrichment with a bait or labelling near it, and not all partners need be listed.

This passage reports binding results from doi:10.1101/2025.04.27.650876.

B1: Developmental Pluripotency Associated 4 (DPPA4), endogenous (protein, UniProt Q7L190 1-304)
chain: MLRGSASSTSMEKAKGKEWTSTEKSREEDQQASNQPNSIALPGTSAKRTKEKMSIKGSKVLCPKKKAEHTDNPRPQKKIPIPPLPSKLPPVNLIHRDILRAWCQQLKLSSKGQKLDAYKRLCAFAYPNQKDFPSTAKEAKIRKSLQKKLKVEKGETSLQSSETHPPEVALPPVGEPPALENSTALLEGVNTVVVTTSAPEALLASWARISARARTPEAVESPQEASGVRWCVVHGKSLPADTDGWVHLQFHAGQAWVPEKQEGRVSALFLLPASNFPPPHLEDNMLCPKCVHRNKVLIKSLQWE
B1: in assay [1], the binding result was “binds”.

B2: Developmental Pluripotency Associated 2 (DPPA2), endogenous (protein, UniProt Q7Z7J5 1-298)
chain: MSDANLDSSKKNFLEGEVDDEESVILTLVPVKDDANMEQMEPSVSSTSDVKLEKPKKYNPGHLLQTNEQFTAPQKARCKIPALPLPTILPPINKVCRDTLRDWCQQLGLSTNGKKIEVYLRLHRHAYPEQRQDMPEMSQETRLQRCSRKRKAVTKRARLQRSYEMNERAEETNTVEVITSAPGAMLASWARIAARAVQPKALNSCSIPVSVEAFLMQASGVRWCVVHGRLLSADTKGWVRLQFHAGQAWVPTTHRRMISLFLLPACIFPSPGIEDNMLCPDCAKRNKKMMKRLMTVEK
For B2, in assay [2], the binding result is reported as “binds”.
